Measured values taken from US10753892B2, “Non-invasive sensing of free metal ions using ion chemical exchange saturation transfer” (The Johns Hopkins University, priority 2013, dated 2020).

Assay: 19F-iCEST MRI of 5F-BAPTA with Ca2+ (16.4 T, 37° C.), Bloch simulations
Type: binding
Procedure: 5F-BAPTA was dissolved in Hepes buffer (40 mM) to a final concentration of 10 mM and the pH was adjusted to the following values: 5.6, 6.0, 6.4, 6.8, 7.0, 7.2, and 7.6. Stock 10 mM solutions of CaCl2, MgCl2, and ZnCl2 were prepared in 40 mM Hepes buffer. Five μL of the stock solution was added to 1 mL of 10 mM 5F-BAPTA resulting in a 200:1 ratio (10 mM: 50 μM) between the free 5F-BAPTA and the M^2+ ion following by a pH adjustment. One mL of each sample (with adjusted pH) was transferred into a 8 mm NMR tube within a 25 mm NMR tube in order to center the sample in the coil for the MRI experiments.
MRI experiments were performed on a vertical 16.4 T scanner (Bruker Avance system) at 37° C. A 25 mm birdcage radiofrequency coil was used to acquire both ^1H and ^19F MR images by sweeping the coil frequency from proton (700 MHz) to fluorine (658.8 MHz) frequency.
The saturation transfer effect on the free 5F-BAPTA, i.e., the MTR or iCEST, was calculated for each voxel in the image by using a Lorentzian line shape fitting as described in Jones et al. (Magn Reson Med 2012, 67, 1579), and Liu et al. (Molecular imaging 2012, 11, 47).
Numerical solutions to the six Bloch equations including direct saturation of free 5F-BAPTA were obtained as described previously (McMahon, M. T. et al., Magnetic Resonance in Medicine 2006, 55, 836). The relaxation parameters for ^19F used in the Bloch equations were R1=1/T1 with bound calcium (Rib)=0.71 s^−1, R2 bound calcium (R2b)=29 s^−1, whereas the R1 and R2 values of free 5F-BAPTA (R1f and R2f) were determined experimentally through inversion-recovery and saturation-recovery experiments as a function of pH on solutions containing 20 mM 5F-BAPTA as listed in Table 1 as follows:
Saturation time (tsat) was either 1500 ms to 2000 ms as indicated in the text.
An aqueous solution containing 0.5 mM of 5F-BAPTA and 500 nM in Hepes buffer (40 mM, pH=7.2) was transferred into a 20 mm NMR tube, which was located within a 25 mm NMR tube in order to centralize the sample in the coil for the MRI experiment. The same parameters used for ^19F-iCEST experiments were used except the followings: TR=3000 ms, RARE=8, FOV=6.0 cm (resolution=1.875×1.875 mm), and 168 averages.

With O=C(O)CN(CC(=O)O)c1ccc(F)cc1OCCOc1cc(F)ccc1N(CC(=O)O)CC(=O)O [5F-BAPTA, 2,2′,2″,2′″-(2,2′-(Ethane-1,2-diylbis(oxy))bis(4-fluoro-2,1-phenylene))bis(azanetriyl)tetraacetic acid] the “Δω (ppm) between Ca2+-bound and free 5F-BAPTA” value (pH 5.6) was 2.1 ppm, the “Δω (ppm) between Ca2+-bound and free 5F-BAPTA” value (pH 6.0) was 4.0 ppm and the “Δω (ppm) between Ca2+-bound and free 5F-BAPTA” value (pH 6.4) was 5.0 ppm. The “Δω (ppm) between Ca2+-bound and free 5F-BAPTA” value (pH 6.8) was 5.6 ppm, the “Δω (ppm) between Ca2+-bound and free 5F-BAPTA” value (pH 7.0) was 5.9 ppm and the “Δω (ppm) between Ca2+-bound and free 5F-BAPTA” value (pH 7.2) was 6.2 ppm. The “Δω (ppm) between Ca2+-bound and free 5F-BAPTA” value (pH 7.6) was 6.2 ppm.
